Patent US10087242B2 (INSTITUT PASTEUR, priority 2007, dated 2018)
For at least one compound, name, drawing or mass did not settle the structure.

Legend:
Type in all cases: binding, mouse
Details in all cases: concentration of oligosaccharide giving 50% inhibition of fixation of the mAb on LPS 3a (S. flexneri 3a)
[1] = tested on: mIgG C7-37; assay: inhibition ELISA: oligosaccharide inhibits fixation of mIgG C7-37 on LPS 3a
Description: (§1) The oligosaccharide determinants recognized by the four mAbs obtained were characterized by measuring, by inhibition ELISA, the interaction of the various oligosaccharides synthesized with these mAbs.
(§2) 1) First, a standard curve OD=f(concentration of the mAb) was established for each antibody.
(§3) For this, purified LPS from S. flexneri 3a was fixed in the wells of ELISA plates (96-well plate), at a concentration of 25 μg/ml in a carbonate buffer pH 9.6, at 4° C., overnight.
(§4) After washing the wells with a solution of PBS/ Tween 20 (0.05%) 1% and a stage of saturation with PBS/BSA 1% for 30 minutes at 4° C., various concentrations of each mAb were incubated for 30 minutes at 4° C. After a washing stage, a secondary antibody coupled to alkaline phosphatase and specific to the mouse IgGs or IgMs was added at a dilution of 1/5000 (Sigma-Aldrich) for 1 h at 37° C. After washing, the enzymatic reaction was carried out with the specific substrate of alkaline phosphatase (12 mg of p-nitrophenylphosphate in 1.2 ml of Tris-HCl buffer 1M (pH 8.8) and 10.8 ml of 5M NaCl). Once the color reaction had developed, the plates were read at 405 nm (Dynatech MR 4000 plate reader). […]
(§5) 2) The concentration of oligosaccharide capable of inhibiting 50% of the fixation of the mAb on LPS 3a was then determined as follows. […]

[2] = tested on: mIgG G7-12; assay: inhibition ELISA: oligosaccharide inhibits fixation of mIgG G7-12 on LPS 3a
Description: as §1, §2, §3, §4, §5

[3] = tested on: IgM (G 19-2); assay: inhibition ELISA: oligosaccharide inhibits fixation of IgM G19-2 on LPS 3a
Description: Protocol 2) Ten Balb/C mice and four BP2 mice were immunized by i.p. injection with virulent live bacteria of the strain S. flexneri 3a, every three weeks, using 2×10^6 bacteria for the first 2 immunizations and 5×10^6 for the next 4. As the anti-LPS 3a antibody response was too weak for performing cellular fusion, an additional series of 4 injections was carried out. Two mAbs of type IgM, G19-2 and L18-9, were obtained.
as §1, §2, §3
After washing the wells with a solution of PBS/ Tween 20 (0.05%) 1% and a stage of saturation with PBS/BSA 1% for 30 minutes at 4° C., various concentrations of each mAb were incubated for 30 minutes at 4° C. […] Once the color reaction had developed, the plates were read at 405 nm (Dynatech MR 4000 plate reader). […]
as §5

SMILES: CCCOC1OC(C)C(O)C(OC2OC(CO)C(O)C(O)C2O)C1OC1OC(CO)C(O)C(OC2OC(C)C(O)C(O)C2O)C1NC(C)=O [C(OH)D(E)A-OPr, Propyl α-L-rhamnopyranosyl-(1→3)-(2-acetamido-2-deoxy-β-D-glucopyranosyl)-(1→2)-[α-D-glucopyranosyl-(1→3)]-α-L-rhamnopyranoside]
- IC50 [1]: > 5000 µM
- IC50 [2]: > 2500 µM
- IC50 [3]: > 2500 µM
